Laboratory results from PubChem BioAssay AID540256 (National Center for Advancing Translational Sciences (NCATS), 2011).
Hit rate of the full screen: of about 300,000 compounds, about 3,700 (1.2%) were called active. Inconclusive results, whose numbers are uncertain, are shown with a selection of clear calls. The call rests on the fitted dose curve; tested in HEK293 cells. A potency beside an inconclusive call is a rough fit, not a confirmed value. Where a SMILES comes first, the peptide text is derived from it. The star is where a group is joined. Cbz = O=C(OCc1ccccc1)*; OtBu = CC(C)(C)O*; tBu = CC(C)(C)*

test: qHTS for Inhibitors of binding or entry into cells for Lassa Virus; conditions: Lassa virus pseudotype entry inhibition, cell reporter; series mostly up to 37.9 µM; further: nearly all actives have a fitted effect of over 50% in size
Potency means the concentration at half of the fitted maximal effect.

SMILES	Potency
O=C(Nc1ccc2c(c1)OCCO2)c1cccnc1Oc1ccc(Cl)cc1	inconclusive: 7.94 µM [inhibitor, partial curve, poor fit]
COC(=O)C(NC(=O)CCc1nnc2ccc(N3CCCCC3)nn12)C(C)C (stereo unspecified)	inconclusive: 8.91 µM [activator, partial curve, poor fit]
CN1CCc2c(sc(N)c2C(=O)c2ccc(Cl)cc2)C1	inactive
O=C(N/N=C/c1ccco1)c1cc(-c2ccccc2)nc2ccccc12	inactive
Cc1c(C(=O)N2CCN(c3ccc(C(F)(F)F)cn3)CC2)oc2ccccc12	inconclusive: 5.62 µM [inhibitor, single point]
CN1CCN(c2ccc(NC(=O)c3ccc(-c4ccccc4F)o3)cc2)CC1	inconclusive: 4.47 µM [activator, single point]
Cc1nc(C)c(C(=O)Nc2ccc(Oc3ccccc3)cc2)o1	inconclusive: 23.1 µM [inhibitor, partial curve, poor fit]
COc1ccc2c(=O)c(C(=O)NCCc3ccc(OC)c(OC)c3)c[nH]c2c1	inconclusive: 18.3 µM [inhibitor, single point]
O=C(NCC(c1ccco1)N1CCN(c2ccc(F)cc2)CC1)OCc1ccccc1 (stereo unspecified)	active: 1.26 µM
COc1cc(C2Nc3ccc4ncccc4c3C3=C2C(=O)CCC3)cc(OC)c1O (stereo unspecified)	inconclusive: 10 µM [inhibitor, partial curve, poor fit]
O=C(Cc1ccc(Cl)cc1)Nc1ccc(S(=O)(=O)N2CCOCC2)cc1	inactive
COc1c(Cl)cc(C(=O)Nc2cc(-c3nc4ccccc4[nH]3)ccc2C)cc1Cl	inconclusive: 11.2 µM [inhibitor, single point]
COc1ccc(-c2c(C(=O)O)c(C(=O)O)c3n2CCC3)cc1	inconclusive: 22.4 µM [inhibitor, partial curve, poor fit]
COc1ccc(N(C(=O)c2ccco2)C(C(=O)NC2CCCC2)c2ccccc2)cc1 (stereo unspecified)	inconclusive: 35.5 µM [inhibitor, partial curve, poor fit]
Cc1cccc(Cc2nnc(CCC(=O)N(C)C3CCOC3)o2)c1 (stereo unspecified)	inactive
COc1ccccc1N(CC(=O)NC1CC2CCC1C2)S(=O)(=O)c1ccc(C)cc1 (stereo unspecified)	inconclusive: 11.2 µM [inhibitor, partial curve, poor fit]
CCOc1ccccc1N1CCN(C(=O)C2c3ccccc3Oc3ccccc32)CC1	active: 7.08 µM
CC(C)(C)OC(=O)N1CCC[C@H]1c1nnc(SCc2ccccc2)o1	inconclusive: 15.8 µM [inhibitor, partial curve, poor fit]
CCC(=NNC(=O)c1ccc2c(c1)nc(C)n2CC)c1cc(F)ccc1O	inconclusive: 35.5 µM [inhibitor, single point]
COc1ccc(N2CCN(C(=O)Nc3cn(CC(C)C)c(=O)c4ccccc34)CC2)cc1	inactive
CC(NC(=O)CN(c1ccc(Cl)cc1)S(C)(=O)=O)c1ccccc1 (stereo unspecified)	inconclusive: 0.398 µM [inhibitor, partial curve, poor fit]

SMILES	Potency
O=C(Nc1ccc2nc(SCc3ccc(Cl)cc3)sc2c1)c1ccccc1C(=O)N1CCOCC1	inconclusive: 25.1 µM [inhibitor, single point]
O=C(c1ccc2c(c1)OCO2)N1CCC(Cc2ccccc2)CC1	inconclusive: 35.5 µM [inhibitor, single point]
CC(C)c1ccc(C2CC(=O)Nc3cc4c(cc32)OCCO4)cc1 (stereo unspecified)	inconclusive: 7.94 µM [inhibitor, partial curve, poor fit]
Cc1c(CCOC(=O)c2ccc(Cl)cc2Cl)sc[n+]1CC(=O)c1ccccc1	inactive
CC(=O)c1ccc(NC(=O)c2ccc(S(=O)(=O)c3ccccc3)cc2)cc1	inconclusive: 0.794 µM [inhibitor, single point]
CCCC(=O)NC(=S)Nc1ccccc1C(=O)OC	inactive
CCOc1ccccc1-c1noc(CSc2nnc(-c3ccccc3)n2-c2ccc(OC)cc2)n1	inactive
O=C(Cn1cc([N+](=O)[O-])cn1)NCCc1c[nH]c2ccccc12	inactive
CC(NC(=O)OCc1ccccc1)C(=O)NCC(=O)NC(Cc1ccc(OC(C)(C)C)cc1)C(=O)OC(C)(C)C (stereo not drawn) (Cbz-Ala-Gly-Tyr(tBu)-OtBu; configuration not given here)	inconclusive: 2.06 µM [inhibitor, full curve]
COc1cccc(-n2nnnc2SCC(=O)c2ccc(NC(C)=O)cc2)c1	inconclusive: 1.3 µM [inhibitor, full curve, poor fit]
CCOC(=O)N1CCC(NC(=O)c2ccc3c(c2)N(Cc2ccccc2C)C(=O)c2ccccc2S3=O)CC1 (stereo unspecified)	inactive
COC(=O)c1c(-c2ccc(C)cc2)csc1NC(=O)Cc1ccc(OC)c(OC)c1	inconclusive: 8.91 µM [inhibitor, partial curve, poor fit]
CCn1c(C)c(C2=CCN(S(=O)(=O)c3ccccc3)CC2)c2ccccc21	inconclusive: 0.411 µM [inhibitor, partial curve, poor fit]
O=C(CSc1nc2ccccc2s1)Nc1ccc(Cl)c(S(=O)(=O)N2CCOCC2)c1	inconclusive: 35.5 µM [inhibitor, single point]
COc1cc(/C=C2/C(=N)N3C=CSC3=NC2=O)ccc1OCCCOc1c(C)cccc1C	inactive
O=C(Nc1ccccc1C(F)(F)F)N1CCOc2ccc(Cl)cc21	inconclusive: 2.82 µM [inhibitor, full curve, poor fit]
CCC(/C=C1\Sc2ccc(OC)cc2N1CC)=C\c1sc2ccc(OC)cc2[n+]1CCCS(=O)(=O)[O-]	inconclusive: 5.8 µM [inhibitor, partial curve]
CSc1ncnc2c1ncn2CC(=O)C1CCC2C3CCC4=CC(=O)CCC4(C)C3CCC12C (stereo unspecified)	inconclusive: 7.94 µM [inhibitor, partial curve, poor fit]
Cc1cccc(-n2ncc3c2CCCC3NC(=O)C2CCOCC2)c1C (stereo unspecified)	inactive
CCOC(=O)C1=C(C)NC2=C(C(=O)C(C(=O)OCC)C(c3ccc(OC)cc3)C2)C1c1ccccn1 (stereo unspecified)	inconclusive: 3.55 µM [inhibitor, partial curve, poor fit]

Fetched by structure from above:
SMILES	Potency
O=C(Cc1ccc(Cl)cc1)Nc1ccc(S(=O)(=O)N2CCOCC2)cc1	inactive
Cc1c(C(=O)N2CCN(c3ccc(C(F)(F)F)cn3)CC2)oc2ccccc12	inconclusive: 5.62 µM [inhibitor, single point]
